Our source for the binding values is US10655130.

Protein sequences, listed by entry. Tags and fused reporters are not part of them.
UniProt Q16665: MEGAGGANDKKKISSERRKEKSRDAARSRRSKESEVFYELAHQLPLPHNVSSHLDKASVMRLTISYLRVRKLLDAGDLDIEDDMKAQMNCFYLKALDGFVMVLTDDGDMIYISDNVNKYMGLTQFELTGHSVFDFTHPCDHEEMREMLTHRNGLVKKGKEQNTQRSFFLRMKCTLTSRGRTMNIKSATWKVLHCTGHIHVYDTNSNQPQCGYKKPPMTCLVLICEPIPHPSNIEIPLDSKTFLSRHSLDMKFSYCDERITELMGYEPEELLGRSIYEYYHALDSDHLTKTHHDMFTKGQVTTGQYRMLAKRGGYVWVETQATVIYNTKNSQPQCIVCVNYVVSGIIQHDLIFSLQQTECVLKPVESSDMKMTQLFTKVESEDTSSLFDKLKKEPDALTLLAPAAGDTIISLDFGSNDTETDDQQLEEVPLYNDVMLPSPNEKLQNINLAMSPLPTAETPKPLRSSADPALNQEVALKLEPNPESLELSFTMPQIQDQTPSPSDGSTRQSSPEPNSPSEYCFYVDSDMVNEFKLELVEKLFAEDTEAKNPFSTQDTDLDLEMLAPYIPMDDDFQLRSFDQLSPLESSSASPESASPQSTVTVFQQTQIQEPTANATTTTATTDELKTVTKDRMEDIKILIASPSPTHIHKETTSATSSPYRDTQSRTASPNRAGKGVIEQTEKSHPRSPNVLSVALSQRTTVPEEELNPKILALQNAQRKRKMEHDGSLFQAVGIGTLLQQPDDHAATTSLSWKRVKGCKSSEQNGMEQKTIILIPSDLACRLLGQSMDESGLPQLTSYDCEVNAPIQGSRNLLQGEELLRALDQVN

Assay [1] concerns the target T1, XBP1s (spliced X-box binding protein 1), expressed from a plasmid (UniProt P17861).
T1 sequence (looked up): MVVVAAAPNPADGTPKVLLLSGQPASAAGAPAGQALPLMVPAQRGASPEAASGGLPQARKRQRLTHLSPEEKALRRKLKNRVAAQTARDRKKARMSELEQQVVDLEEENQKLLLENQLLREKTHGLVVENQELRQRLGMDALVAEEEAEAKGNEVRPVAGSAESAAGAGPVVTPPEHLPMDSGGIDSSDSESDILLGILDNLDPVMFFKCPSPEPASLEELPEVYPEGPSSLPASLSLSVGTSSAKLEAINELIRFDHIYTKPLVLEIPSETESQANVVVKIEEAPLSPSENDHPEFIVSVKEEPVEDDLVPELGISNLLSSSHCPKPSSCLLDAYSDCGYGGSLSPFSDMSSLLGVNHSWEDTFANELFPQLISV
Put plainly: co-immunoprecipitation with M2 anti-FLAG antibody from 293T cell extracts (hypoxia), western blot.

Assay [2] has as its target endogenous HIF1α in nuclear extracts of MDA-MB-231 and Hs578T cells (human) (UniProt Q16665). Put plainly: title of the legend of FIG. 5 (co-immunoprecipitation panels B, C, M).
Assay [3] has the same target. Put plainly: summary of the co-immunoprecipitation, ChIP and reporter experiments of Example 6.
Assay [4] has the same target. The assay can be described thus: endogenous co-immunoprecipitation from nuclear extracts of MDA-MB-231 and Hs578T cells (tunicamycin, 0.1% O2), western blot.

These are yes or no findings as the source states them, for the method shown. Binding seen in cells or lysates may run through a third protein. Some entries that bind do so weakly or less than the wild type.

In the case of “FLAG-tagged HIF1α (hypoxia-inducible factor 1α), co-expressed in 293T cells (from UniProt Q16665 1-826)”, the binding entry in assay [1] is given as “binds”.

B1: endogenous XBP1 (spliced form, XBP1s) in nuclear extracts of MDA-MB-231 and Hs578T cells (protein, human, UniProt P17861-2 1-376, looked up)
chain: T1 sequence (looked up)
Take B1: the binding result in assay [2], in assay [3] and in assay [4] was “binds” each time.
